Source: the supplement of paper PMC10849652
Some of the results follow.

Protein sequences, listed by entry. Tags and fused reporters are not part of them. Lines headed by an entry give the natural chain unless they say otherwise; changes in a name come on top.
UniProt Q9HAV0, whole entry, looked up: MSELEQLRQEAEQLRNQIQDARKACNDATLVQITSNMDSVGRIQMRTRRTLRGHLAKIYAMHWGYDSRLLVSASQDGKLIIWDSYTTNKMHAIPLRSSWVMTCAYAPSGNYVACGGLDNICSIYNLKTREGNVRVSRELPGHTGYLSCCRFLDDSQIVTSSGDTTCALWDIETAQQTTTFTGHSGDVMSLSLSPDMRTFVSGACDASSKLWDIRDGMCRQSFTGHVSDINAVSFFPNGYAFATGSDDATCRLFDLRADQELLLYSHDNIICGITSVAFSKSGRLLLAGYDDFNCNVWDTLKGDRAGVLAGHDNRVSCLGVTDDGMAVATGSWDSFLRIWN
UniProt Q8TDQ7: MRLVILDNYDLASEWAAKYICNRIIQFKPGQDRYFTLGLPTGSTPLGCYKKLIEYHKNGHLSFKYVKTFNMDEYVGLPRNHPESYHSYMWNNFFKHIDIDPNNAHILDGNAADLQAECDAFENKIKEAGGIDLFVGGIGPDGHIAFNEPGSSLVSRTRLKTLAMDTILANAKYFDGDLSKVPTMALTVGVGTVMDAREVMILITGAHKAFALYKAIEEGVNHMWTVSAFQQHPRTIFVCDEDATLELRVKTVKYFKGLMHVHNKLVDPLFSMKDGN
UniProt Q9HCN4, whole entry, looked up: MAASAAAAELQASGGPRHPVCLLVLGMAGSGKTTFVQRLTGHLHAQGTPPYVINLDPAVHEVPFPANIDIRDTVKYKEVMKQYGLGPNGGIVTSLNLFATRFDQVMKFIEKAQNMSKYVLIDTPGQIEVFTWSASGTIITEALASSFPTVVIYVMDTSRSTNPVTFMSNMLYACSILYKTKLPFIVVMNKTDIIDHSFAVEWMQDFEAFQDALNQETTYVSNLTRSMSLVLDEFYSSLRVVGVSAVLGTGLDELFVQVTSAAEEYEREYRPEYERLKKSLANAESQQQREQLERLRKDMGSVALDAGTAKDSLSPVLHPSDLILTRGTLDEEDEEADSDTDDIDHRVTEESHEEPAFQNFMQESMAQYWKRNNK
UniProt Q8TBA6: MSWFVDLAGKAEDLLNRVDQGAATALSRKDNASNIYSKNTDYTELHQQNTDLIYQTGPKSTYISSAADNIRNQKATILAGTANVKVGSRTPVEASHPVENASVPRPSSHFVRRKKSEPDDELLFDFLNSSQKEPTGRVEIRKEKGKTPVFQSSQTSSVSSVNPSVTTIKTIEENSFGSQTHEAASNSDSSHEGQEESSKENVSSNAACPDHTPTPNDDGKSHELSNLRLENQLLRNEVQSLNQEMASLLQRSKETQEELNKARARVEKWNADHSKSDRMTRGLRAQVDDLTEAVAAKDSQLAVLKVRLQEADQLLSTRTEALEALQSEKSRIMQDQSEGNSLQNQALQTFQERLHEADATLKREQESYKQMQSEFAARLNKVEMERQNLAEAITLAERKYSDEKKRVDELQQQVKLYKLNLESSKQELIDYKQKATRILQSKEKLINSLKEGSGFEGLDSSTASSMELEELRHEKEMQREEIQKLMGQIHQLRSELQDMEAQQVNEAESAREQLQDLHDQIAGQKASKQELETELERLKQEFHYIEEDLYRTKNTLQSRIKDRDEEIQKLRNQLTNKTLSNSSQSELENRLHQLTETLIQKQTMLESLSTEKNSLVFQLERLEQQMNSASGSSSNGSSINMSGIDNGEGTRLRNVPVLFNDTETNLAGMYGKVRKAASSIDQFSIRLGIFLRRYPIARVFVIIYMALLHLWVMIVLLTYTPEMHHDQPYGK
UniProt Q14789: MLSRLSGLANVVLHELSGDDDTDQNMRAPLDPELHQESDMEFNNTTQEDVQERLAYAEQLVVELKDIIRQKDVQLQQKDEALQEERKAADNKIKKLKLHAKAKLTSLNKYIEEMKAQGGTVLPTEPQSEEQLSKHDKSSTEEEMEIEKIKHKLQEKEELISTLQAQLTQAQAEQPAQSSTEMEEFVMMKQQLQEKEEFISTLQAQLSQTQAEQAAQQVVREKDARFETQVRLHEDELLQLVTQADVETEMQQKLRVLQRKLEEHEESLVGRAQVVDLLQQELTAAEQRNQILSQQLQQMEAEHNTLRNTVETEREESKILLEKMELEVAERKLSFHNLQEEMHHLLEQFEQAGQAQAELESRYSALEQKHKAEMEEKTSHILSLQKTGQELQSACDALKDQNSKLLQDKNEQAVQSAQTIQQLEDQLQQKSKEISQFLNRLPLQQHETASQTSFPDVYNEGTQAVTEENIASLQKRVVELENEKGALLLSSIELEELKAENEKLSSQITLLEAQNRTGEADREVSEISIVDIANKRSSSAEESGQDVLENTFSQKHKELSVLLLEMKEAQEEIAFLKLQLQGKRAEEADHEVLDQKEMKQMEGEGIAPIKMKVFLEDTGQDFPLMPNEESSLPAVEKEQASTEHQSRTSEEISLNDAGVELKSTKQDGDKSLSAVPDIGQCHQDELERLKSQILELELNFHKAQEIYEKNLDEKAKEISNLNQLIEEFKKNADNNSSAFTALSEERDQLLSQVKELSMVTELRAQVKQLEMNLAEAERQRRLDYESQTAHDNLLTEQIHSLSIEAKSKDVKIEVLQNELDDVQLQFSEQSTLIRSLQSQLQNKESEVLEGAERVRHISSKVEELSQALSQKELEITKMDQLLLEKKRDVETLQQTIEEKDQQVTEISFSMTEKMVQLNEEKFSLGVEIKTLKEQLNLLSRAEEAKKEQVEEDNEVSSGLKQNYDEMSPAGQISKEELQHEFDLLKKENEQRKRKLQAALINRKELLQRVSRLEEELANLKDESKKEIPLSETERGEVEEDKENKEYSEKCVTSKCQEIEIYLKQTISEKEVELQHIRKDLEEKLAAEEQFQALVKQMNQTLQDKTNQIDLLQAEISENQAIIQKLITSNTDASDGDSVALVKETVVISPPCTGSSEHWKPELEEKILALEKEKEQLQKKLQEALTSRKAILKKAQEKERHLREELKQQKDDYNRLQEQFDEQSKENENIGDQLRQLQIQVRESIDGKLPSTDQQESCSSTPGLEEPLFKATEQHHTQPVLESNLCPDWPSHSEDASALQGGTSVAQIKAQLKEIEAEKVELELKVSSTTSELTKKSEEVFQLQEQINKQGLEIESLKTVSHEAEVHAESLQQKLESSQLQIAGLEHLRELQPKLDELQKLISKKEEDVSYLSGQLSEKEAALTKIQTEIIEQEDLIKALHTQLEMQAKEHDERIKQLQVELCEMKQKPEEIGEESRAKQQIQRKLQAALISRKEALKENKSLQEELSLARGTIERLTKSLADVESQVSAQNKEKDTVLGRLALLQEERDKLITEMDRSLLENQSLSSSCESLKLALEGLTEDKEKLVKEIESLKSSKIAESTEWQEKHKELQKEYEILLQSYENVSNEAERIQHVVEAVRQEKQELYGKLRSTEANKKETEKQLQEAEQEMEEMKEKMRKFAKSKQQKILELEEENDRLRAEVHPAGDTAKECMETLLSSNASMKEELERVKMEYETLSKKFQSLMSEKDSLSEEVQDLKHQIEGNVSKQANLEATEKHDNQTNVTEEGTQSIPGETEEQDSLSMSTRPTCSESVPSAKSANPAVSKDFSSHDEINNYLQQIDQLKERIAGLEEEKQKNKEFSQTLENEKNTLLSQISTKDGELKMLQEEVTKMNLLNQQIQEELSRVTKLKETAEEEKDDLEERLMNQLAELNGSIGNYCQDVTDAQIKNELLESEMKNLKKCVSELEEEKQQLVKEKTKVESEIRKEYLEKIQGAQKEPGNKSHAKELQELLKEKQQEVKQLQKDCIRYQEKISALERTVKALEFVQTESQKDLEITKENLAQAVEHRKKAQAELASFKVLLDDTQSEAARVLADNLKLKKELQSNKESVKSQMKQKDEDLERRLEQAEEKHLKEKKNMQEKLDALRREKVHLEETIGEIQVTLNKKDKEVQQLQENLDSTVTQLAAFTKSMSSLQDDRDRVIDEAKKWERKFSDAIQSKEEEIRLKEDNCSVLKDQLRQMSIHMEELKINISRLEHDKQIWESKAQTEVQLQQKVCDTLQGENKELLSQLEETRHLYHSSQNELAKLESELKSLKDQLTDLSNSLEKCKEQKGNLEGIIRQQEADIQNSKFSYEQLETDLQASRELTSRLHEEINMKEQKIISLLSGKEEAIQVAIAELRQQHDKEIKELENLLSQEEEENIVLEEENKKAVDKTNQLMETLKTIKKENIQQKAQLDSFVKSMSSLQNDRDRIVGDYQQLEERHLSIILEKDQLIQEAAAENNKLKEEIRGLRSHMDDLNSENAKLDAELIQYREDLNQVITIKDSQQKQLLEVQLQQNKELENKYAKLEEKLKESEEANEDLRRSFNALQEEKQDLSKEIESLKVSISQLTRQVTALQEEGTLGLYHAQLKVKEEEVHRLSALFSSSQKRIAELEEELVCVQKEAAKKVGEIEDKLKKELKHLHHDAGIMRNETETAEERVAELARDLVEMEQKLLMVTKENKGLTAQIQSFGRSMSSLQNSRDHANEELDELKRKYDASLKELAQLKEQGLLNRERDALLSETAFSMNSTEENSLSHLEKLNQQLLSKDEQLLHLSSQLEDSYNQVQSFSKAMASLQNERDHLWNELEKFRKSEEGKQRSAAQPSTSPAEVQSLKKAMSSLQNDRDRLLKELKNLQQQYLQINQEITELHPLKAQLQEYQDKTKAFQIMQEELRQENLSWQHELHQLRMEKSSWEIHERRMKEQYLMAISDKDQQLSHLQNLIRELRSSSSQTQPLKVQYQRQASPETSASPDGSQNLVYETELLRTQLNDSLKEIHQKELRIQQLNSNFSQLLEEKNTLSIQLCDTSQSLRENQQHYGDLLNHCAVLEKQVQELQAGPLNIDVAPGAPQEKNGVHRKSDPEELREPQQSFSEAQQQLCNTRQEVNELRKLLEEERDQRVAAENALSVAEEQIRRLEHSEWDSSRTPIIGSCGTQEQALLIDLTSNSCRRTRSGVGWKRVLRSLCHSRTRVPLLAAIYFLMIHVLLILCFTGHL
UniProt Q9BVP2: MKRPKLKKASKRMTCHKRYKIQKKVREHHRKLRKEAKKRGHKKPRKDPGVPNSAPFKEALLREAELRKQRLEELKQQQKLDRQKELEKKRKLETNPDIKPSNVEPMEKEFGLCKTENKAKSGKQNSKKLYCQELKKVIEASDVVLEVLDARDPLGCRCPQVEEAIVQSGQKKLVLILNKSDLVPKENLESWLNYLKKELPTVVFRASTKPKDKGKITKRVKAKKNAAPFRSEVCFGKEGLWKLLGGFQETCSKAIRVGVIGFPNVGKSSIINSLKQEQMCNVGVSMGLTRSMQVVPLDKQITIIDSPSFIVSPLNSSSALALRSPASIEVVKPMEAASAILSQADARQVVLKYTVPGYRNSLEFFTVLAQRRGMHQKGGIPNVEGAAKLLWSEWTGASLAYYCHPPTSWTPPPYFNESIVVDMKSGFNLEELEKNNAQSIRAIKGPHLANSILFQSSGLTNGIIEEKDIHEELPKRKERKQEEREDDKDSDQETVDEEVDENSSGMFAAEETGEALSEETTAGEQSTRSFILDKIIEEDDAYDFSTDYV
UniProt P62879, whole entry, looked up: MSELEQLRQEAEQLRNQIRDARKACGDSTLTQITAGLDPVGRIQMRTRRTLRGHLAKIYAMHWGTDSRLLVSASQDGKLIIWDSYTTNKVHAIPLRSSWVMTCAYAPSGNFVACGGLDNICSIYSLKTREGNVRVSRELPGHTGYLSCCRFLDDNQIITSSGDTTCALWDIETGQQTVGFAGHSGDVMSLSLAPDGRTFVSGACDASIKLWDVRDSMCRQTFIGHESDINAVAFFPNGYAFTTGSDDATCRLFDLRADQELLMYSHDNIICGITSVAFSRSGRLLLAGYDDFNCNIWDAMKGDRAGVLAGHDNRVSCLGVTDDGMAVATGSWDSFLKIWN
UniProt Q53EU6: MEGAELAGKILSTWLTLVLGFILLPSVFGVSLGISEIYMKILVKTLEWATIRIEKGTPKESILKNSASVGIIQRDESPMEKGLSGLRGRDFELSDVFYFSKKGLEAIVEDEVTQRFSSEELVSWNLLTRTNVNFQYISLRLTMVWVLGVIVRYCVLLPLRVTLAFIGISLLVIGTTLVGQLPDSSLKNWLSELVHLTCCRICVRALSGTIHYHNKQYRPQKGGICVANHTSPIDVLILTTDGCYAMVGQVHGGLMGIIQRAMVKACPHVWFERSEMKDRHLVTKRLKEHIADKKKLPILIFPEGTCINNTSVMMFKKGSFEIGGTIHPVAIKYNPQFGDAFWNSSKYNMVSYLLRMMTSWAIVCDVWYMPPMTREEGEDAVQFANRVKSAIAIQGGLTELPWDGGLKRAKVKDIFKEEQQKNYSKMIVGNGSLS
UniProt Q9H4A5: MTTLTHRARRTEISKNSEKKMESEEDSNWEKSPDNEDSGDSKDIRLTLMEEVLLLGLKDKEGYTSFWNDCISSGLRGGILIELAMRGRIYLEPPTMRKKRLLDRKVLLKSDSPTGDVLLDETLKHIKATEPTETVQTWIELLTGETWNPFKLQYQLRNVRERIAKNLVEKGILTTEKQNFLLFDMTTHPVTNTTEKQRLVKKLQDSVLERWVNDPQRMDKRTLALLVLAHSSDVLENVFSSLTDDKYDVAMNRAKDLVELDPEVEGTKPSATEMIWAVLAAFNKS

Tests used:
Test in all cases: log2 fold change, soluble protein after heating vs DMSO (PISA); higher = thermal stabilisation; K562 cells, 10 uM, 30 min; active = over 0.2 and 3.5 SD of the protein, either way, in both replicates (recomputed)
[1] = compound: NC(=O)Nc1cc(-c2cccc(F)c2)sc1C(=O)N[C@H]1CCCNC1
In short: (§1)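 K562 cells at 2×10^6 cells/mL were treated with 10 μM compound for 30 min. Aliquots were heated for 3 min across 48°C-58°C, pooled, and extracted in PBS with 0.5% NP-40 at 4°C; soluble protein was the supernatant after 21,000xg for 90 min. Soluble protein was quantified by TMTpro 16plex LC-MS/MS with channel sums equalised, and reported as log2 fold change in thermal stability against DMSO controls, with values from duplicates.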

[2] = compound: NC(=O)c1cnc(N[C@@H]2CCCC[C@@H]2N)nc1Nc1cccc(-n2nccn2)c1
In short: as §1

[3] = compound: NC1(c2ccc(-c3nc4ccn5c(=O)[nH]nc5c4cc3-c3ccccc3)cc2)CCC1
In short: as §1

[4] = compound: NCC(=O)Nc1ccc(-n2nc(C(F)(F)F)cc2-c2ccc3c(ccc4ccccc43)c2)cc1
In short: as §1

entinostat = compound: Nc1ccccc1NC(=O)c1ccc(CNC(=O)OCc2cccnc2)cc1 [entinostat]
In short: as §1

vorinostat = compound: O=C(CCCCCCC(=O)Nc1ccccc1)NO [vorinostat]
In short: as §1

citarinostat = compound: O=C(CCCCCCNC(=O)c1cnc(N(c2ccccc2)c2ccccc2Cl)nc1)NO [citarinostat]
In short: as §1

silmitasertib = compound: O=C(O)c1ccc2c(c1)nc(Nc1cccc(Cl)c1)c1ccncc12 [silmitasertib]
In short: as §1

[5] = compound: O=C1NC(=O)C(c2cnc3ccccn23)=C1c1cn2c3c(cc(F)cc13)CN(C(=O)N1CCCCC1)CC2
In short: as §1

[6] = compound: c1cc(OCCN2CCCCC2)cc(-c2n[nH]c3ccc(-c4nnc[nH]4)cc23)c1
In short: as §1

Measured: log2 fold change

GRWD1 (UniProt Q9BQ67)
inactive: [1] 0.076 | [2] -0.016 | [3] 0.245 | [4] 0.086 | entinostat -0.107 | vorinostat -0.004 | citarinostat -0.122 | silmitasertib 0.135 | [5] 0.137 | [6] -0.112

GMPS (UniProt P49915)
inactive: [1] -0.018 | [2] -0.049 | [3] -0.172 | [4] -0.027 | entinostat 0.014 | vorinostat 0.047 | citarinostat 0.064 | silmitasertib -0.068 | [5] -0.029 | [6] -0.005

GNB4 (UniProt Q9HAV0)
inactive: [1] -0.05 | [2] 0.148 | [3] -0.172 | [4] 0.094 | entinostat 0.159 | vorinostat 0.042 | citarinostat -0.127 | silmitasertib 0.082 | [5] 0.045 | [6] 0.061

GMPPB isoform 2 (UniProt Q9Y5P6)
inactive: [1] 0.027 | [2] -0.018 | [3] -0.016 | [4] -0.006 | entinostat 0.038 | vorinostat 0.027 | citarinostat 0.042 | silmitasertib 0.013 | [5] -0.023 | [6] -0.026

GNPDA2 (UniProt Q8TDQ7)
inactive: [1] 0.05 | [2] 0.079 | [3] -0.02 | [4] -0.021 | entinostat -0.037 | vorinostat -0.068 | citarinostat 0.004 | silmitasertib -0.02 | [5] -0.058 | [6] 0.004

GPN1 isoform 5 (UniProt Q9HCN4)
inactive: [1] -0.061 | [2] -0.026 | [3] 0.022 | [4] 0.056 | entinostat -0.035 | vorinostat 0.045 | citarinostat 0.029 | silmitasertib -0.031 | [5] -0.039 | [6] -0.037

GOLGA5 (UniProt Q8TBA6)
inactive: [1] 0 | [2] 0 | [3] 0.022 | [4] 0.002 | entinostat -0.015 | vorinostat 0.001 | citarinostat 0.052 | silmitasertib 0.005 | [5] -0.035 | [6] 0.002

GNAI2 isoform 4 (UniProt P04899)
inactive: [1] -0.146 | [2] 0.053 | [3] -0.004 | [4] 0.087 | entinostat -0.042 | vorinostat -0.058 | citarinostat -0.003 | silmitasertib 0.06 | [5] -0.07 | [6] -0.029

GNB1L (UniProt Q9BYB4)
inactive: [1] -0.013 | [2] -0.022 | [3] -0.026 | [4] 0.043 | entinostat -0.008 | vorinostat -0.017 | citarinostat -0.014 | silmitasertib -0.005 | [5] 0.002 | [6] 0.01

GPHN isoform 2 (UniProt Q9NQX3)
inactive: [1] -0.02 | [2] 0.006 | [3] 0.043 | [4] 0.004 | entinostat -0.033 | vorinostat -0.025 | citarinostat -0.049 | silmitasertib 0.028 | [5] -0.025 | [6] 0.06

GNPDA1 (UniProt P46926)
inactive: [1] 0.019 | [2] -0.005 | [3] 0.005 | [4] 0.018 | entinostat -0.014 | vorinostat 0.017 | citarinostat 0.019 | silmitasertib 0.03 | [5] -0.026 | [6] -0.023

GINS4 (UniProt Q9BRT9)
inactive: [1] -0.001 | [2] 0.049 | [3] -0.063 | [4] -0.003 | entinostat 0.064 | vorinostat 0.089 | citarinostat 0.082 | silmitasertib -0.033 | [5] 0.06 | [6] -0.015

GNAI3 (UniProt P08754)
inactive: [1] -0.016 | [2] 0.022 | [3] -0.046 | [4] 0.003 | entinostat -0.04 | vorinostat -0.016 | citarinostat -0.018 | silmitasertib 0.052 | [5] -0.027 | [6] -0.076

GPX4 (UniProt P36969)
inactive: [1] -0.006 | [2] 0.079 | [3] -0.052 | [4] 0.032 | entinostat -0.107 | vorinostat -0.082 | silmitasertib 0.004 | [5] -0.006 | [6] -0.049
active: citarinostat -0.391

Quoted at random: two records from the list.
GPHN isoform 2 (UniProt Q9NQX3)
inactive: [1] -0.02 | [2] 0.006 | [3] 0.043 | [4] 0.004 | entinostat -0.033 | vorinostat -0.025 | citarinostat -0.049 | silmitasertib 0.028 | [5] -0.025 | [6] 0.06

GPX4 (UniProt P36969)
inactive: [1] -0.006 | [2] 0.079 | [3] -0.052 | [4] 0.032 | entinostat -0.107 | vorinostat -0.082 | silmitasertib 0.004 | [5] -0.006 | [6] -0.049
active: citarinostat -0.391

(listing goes on)

GRB2 (UniProt P62993)
inactive: [1] 0.026 | [2] -0.008 | [3] -0.041 | [4] -0.008 | entinostat -0.022 | vorinostat 0.007 | citarinostat 0.033 | silmitasertib -0.002 | [5] -0.017 | [6] -0.057

GOLGB1 isoform 2 (UniProt Q14789)
inactive: [1] 0.106 | [2] -0.062 | [3] -0.044 | [4] 0.026 | entinostat 0.024 | vorinostat -0.019 | citarinostat -0.008 | silmitasertib 0.009 | [5] 0.039 | [6] 0.167

GRIPAP1 (UniProt Q4V328)
inactive: [1] 0.086 | [2] -0.049 | [3] 0.004 | [4] 0.004 | entinostat 0.068 | vorinostat 0.068 | citarinostat 0.083 | silmitasertib 0.158 | [5] 0.11 | [6] -0.009

GON7 (UniProt Q9BXV9)
inactive: [1] -0.002 | [2] 0.095 | [3] -0.038 | [4] 0.008 | entinostat 0.08 | vorinostat -0.112 | citarinostat -0.006 | silmitasertib -0.034 | [5] 0.007 | [6] -0.014

GMEB1 (UniProt Q9Y692)
inactive: [1] 0.066 | [2] -0.072 | [3] -0.047 | [4] 0.027 | entinostat 0.073 | vorinostat 0.001 | citarinostat 0.057 | silmitasertib 0.112 | [5] -0.053 | [6] -0.004

GNL3 (UniProt Q9BVP2)
inactive: [1] 0.08 | [2] -0.061 | [3] -0.098 | [4] -0.088 | entinostat -0.069 | vorinostat -0.131 | citarinostat 0.134 | silmitasertib -0.066 | [5] -0.027 | [6] 0.041

GIT1 isoform 3 (UniProt Q9Y2X7)
inactive: [1] -0.004 | [2] -0.08 | [3] -0.116 | entinostat 0.147 | citarinostat 0.08 | silmitasertib 0.068 | [5] -0.029 | [6] -0.03

GOLGA7B (UniProt Q2TAP0)
inactive: [1] -0.04 | [2] 0.064 | [3] -0.056 | [4] -0.014 | entinostat -0.069 | citarinostat -0.089 | silmitasertib 0.062 | [6] 0.658

GLIPR2 (UniProt Q9H4G4)
inactive: [1] -0.038 | [2] -0.058 | [3] -0.101 | [4] -0.071 | entinostat 0.058 | vorinostat 0.032 | citarinostat -0.029 | silmitasertib 0.112 | [5] -0.017 | [6] -0.037

GLMP (UniProt Q8WWB7)
inactive: [1] -0.047 | [2] 0.024 | [3] 0.017 | [4] -0.113 | entinostat -0.044 | citarinostat -0.109 | silmitasertib 0.168 | [5] -0.033 | [6] -0.294

GNB2 (UniProt P62879)
inactive: [1] -0.073 | [2] -0.012 | [3] 0.022 | [4] -0.014 | entinostat -0.037 | vorinostat -0.047 | citarinostat -0.01 | silmitasertib 0.028 | [5] -0.075 | [6] -0.049

GPAT3 (UniProt Q53EU6)
inactive: [1] 0.224 | [2] 0.153 | [3] 0.04 | [4] 0.142 | entinostat -0.138 | citarinostat 0.016 | silmitasertib 0.026 | [5] -0.155 | [6] -0.057

GMPR (UniProt P36959)
inactive: [1] 0.004 | [2] 0.015 | [3] -0.003 | [4] 0.021 | entinostat -0.005 | vorinostat 0.026 | citarinostat 0.041 | silmitasertib -0.01 | [5] -0.017 | [6] -0.044

GOLPH3L (UniProt Q9H4A5)
inactive: [1] -0.09 | [2] -0.057 | [3] 0.142 | [4] -0.158 | entinostat 0.031 | vorinostat 0.405 | silmitasertib 0.206 | [5] 0.323

GPN2 (UniProt Q9H9Y4)
inactive: [1] 0.008 | [2] 0.008 | [3] 0.026 | [4] 0.027 | entinostat 0.031 | vorinostat 0.023 | citarinostat -0.048 | silmitasertib 0.063 | [6] -0.024
